Experiment [1] addresses T1, Mcm7 (subunit of the MCM double hexamer) (budding yeast (endogenous in W303)) (UniProt P38132).
T1 sequence: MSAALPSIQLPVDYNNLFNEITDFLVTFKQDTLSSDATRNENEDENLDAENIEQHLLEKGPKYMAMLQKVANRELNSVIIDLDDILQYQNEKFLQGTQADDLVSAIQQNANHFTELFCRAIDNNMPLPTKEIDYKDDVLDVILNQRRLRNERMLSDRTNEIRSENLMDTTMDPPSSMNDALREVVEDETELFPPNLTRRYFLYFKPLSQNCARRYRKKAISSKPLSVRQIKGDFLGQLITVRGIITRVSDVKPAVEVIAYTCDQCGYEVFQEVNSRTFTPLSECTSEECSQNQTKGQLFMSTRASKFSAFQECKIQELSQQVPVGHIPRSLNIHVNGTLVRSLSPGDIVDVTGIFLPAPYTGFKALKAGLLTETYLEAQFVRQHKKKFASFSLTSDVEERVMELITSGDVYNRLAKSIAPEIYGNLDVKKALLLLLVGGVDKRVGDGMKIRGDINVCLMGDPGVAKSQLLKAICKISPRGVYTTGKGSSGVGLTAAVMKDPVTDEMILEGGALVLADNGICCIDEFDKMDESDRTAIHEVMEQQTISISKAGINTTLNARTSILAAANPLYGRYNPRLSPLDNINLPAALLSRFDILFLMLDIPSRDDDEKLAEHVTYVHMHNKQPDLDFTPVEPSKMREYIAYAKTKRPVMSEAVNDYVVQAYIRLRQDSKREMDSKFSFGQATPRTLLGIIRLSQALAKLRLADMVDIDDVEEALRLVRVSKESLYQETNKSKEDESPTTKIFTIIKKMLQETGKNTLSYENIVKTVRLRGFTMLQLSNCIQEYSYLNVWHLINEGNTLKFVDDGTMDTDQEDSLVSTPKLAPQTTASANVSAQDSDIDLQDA
Kind of experiment: cryo-EM structure; DDK-DH mixture (ATP-γ-S) mildly crosslinked by Grafix: 20-40% glycerol gradient with 0-0.025% glutaraldehyde, 150 mM KOAc, pH 7.6, 4 °C; States I-IV and Groups I-VI by focused 3D classification; both purified.

Experiment [2] addresses T2, Mcm5 (subunit of the MCM double hexamer) (budding yeast (endogenous in W303)) (UniProt P29496).
T2 sequence: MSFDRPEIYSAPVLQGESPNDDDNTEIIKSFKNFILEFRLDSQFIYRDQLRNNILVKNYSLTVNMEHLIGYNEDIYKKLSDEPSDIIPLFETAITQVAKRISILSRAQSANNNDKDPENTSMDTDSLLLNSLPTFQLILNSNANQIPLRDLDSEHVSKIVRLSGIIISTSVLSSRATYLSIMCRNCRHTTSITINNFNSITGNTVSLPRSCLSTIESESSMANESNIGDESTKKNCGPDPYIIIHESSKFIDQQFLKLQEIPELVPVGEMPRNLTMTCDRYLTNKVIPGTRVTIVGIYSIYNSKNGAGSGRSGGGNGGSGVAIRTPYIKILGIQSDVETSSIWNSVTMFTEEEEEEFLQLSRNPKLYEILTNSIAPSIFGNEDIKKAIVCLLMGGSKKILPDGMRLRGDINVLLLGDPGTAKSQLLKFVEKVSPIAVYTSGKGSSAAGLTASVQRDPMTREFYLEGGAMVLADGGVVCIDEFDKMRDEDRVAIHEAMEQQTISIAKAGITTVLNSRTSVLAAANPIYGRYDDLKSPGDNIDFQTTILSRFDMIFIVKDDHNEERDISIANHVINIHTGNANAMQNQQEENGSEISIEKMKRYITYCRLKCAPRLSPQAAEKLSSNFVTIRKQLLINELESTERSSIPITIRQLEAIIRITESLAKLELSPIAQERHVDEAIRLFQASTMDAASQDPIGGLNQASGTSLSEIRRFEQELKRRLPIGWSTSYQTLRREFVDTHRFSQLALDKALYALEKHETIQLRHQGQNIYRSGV
The description is as above.

These are yes or no findings as the source states them, for the method shown. Some binding calls cover weakened binding; strength is not graded here.

B1: Dbf4 (subunit of the full-length DDK) (protein, UniProt P32325 1-704)
chain: MVSPTKMIIRSPLKETDTNLKHNNGIAASTTAAGHLNVFSNDNNCNNNNTTESFPKKRSLERLELQQQQHLHEKKRARIERARSIEGAVQVSKGTGLKNVEPRVTPKELLEWQTNWKKIMKRDSRIYFDITDDVEMNTYNKSKMDKRRDLLKRGFLTLGAQITQFFDTTVTIVITRRSVENIYLLKDTDILSRAKKNYMKVWSYEKAARFLKNLDVDLDHLSKTKSASLAAPTLSNLLHNEKLYGPTDRDPRTKRDDIHYFKYPHVYLYDLWQTWAPIITLEWKPQELTNLDELPYPILKIGSFGRCPFIGDRNYDESSYKRVVKRYSRDKANKKYALQLRALFQYHADTLLNTSSVNDQTKNLIFIPHTCNDSTKSFKKWMQEKAKNFEKTELKKTDDSAVQDVRNEHADQTDEKNSILLNETETKEPPLKEEKENKQSIAEESNKYPQRKELAATPKLNHPVLATFARQETEEVPDDLCTLKTKSRQAFEIKASGAHQSNDVATSFGNGLGPTRASVMSKNMKSLSRLMVDRKLGVKQTNGNNKNYTATIATTAETSKENRHRLDFNALKKDEAPSKETGKDSAVHLETNRKPQNFPKVATKSVSADSKVHNDIKITTTESPTASKKSTSTNVTLHFNAQTAQTAQPVKKETVKNSGYCENCRVKYESLEQHIVSEKHLSFAENDLNFEAIDSLIENLRFQI
On to B1, for which the binding entry in experiment [1] and in experiment [2] was “binds weakly” in each case.

The values above are taken from paper PMC8927117, “Structural Insight into the MCM double hexamer activation by Dbf4-Cdc7 kinase” (Nature Communications, 2022).
